The target of the assay is protein A (ZZ)-tagged proteasomal β1 subunit (UniProt P28072). The assay is described as follows: co-IP; HeLa cells co-transfected with pSG5-β1-ZZ or control plasmid and pcDNA3-HA-Vpr, 48 hrs; precipitated with anti-protein A antibody, blotted with anti-HA.

By UniProt entry, the sequences of proteins in these tests, tags left out. Where a name states a change or a piece, a line headed by the entry shows the natural chain unless it says otherwise.
UniProt P28072: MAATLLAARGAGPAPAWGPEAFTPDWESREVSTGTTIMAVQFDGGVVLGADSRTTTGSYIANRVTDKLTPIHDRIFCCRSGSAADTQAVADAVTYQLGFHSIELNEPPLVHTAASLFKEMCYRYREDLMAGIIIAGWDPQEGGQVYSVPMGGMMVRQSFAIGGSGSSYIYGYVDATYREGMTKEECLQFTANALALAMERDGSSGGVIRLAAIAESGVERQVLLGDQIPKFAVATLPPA
UniProt P12520: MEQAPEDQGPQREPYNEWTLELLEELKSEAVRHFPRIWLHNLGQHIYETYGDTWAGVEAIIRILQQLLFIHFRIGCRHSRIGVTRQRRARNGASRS

These are yes or no findings as the source states them, for the method shown. In cells and extracts the contact can be indirect. Binding can be weak; no strength is given.

Regarding “HA-tagged Vpr on pcDNA3.1, expressed in HeLa cells (from UniProt P12520 1-96)”, the binding result is reported as “binds”.

(Values after article PMC2894085.)
